Reference: patent publication US20250144562A1, “ELECTROCHEMICAL CO2 CAPTURE WITH AIR STABLE REDOX SPECIES” (President and Fellows of Harvard College, priority 2022, published 2025)

Assay: 1,8-BTMAPAQ-based CO2 capture experiment (BaCO3 precipitation)
Conditions: for BaCO3 captured: 0.5 mmol quinone

In the case of `C[N+](C)(C)CCCOc1cccc2c1C(=O)c1c(OCCC[N+](C)(C)C)cccc1C2=O` [1,8-BTMAPAQ], the BaCO3 captured (adduct kept in N2) is reported as 200 mg, the BaCO3 captured (solution with captured CO2 vigorously stirred in air) is reported as 170 mg and the “CO2 per quinone escaped during the air exposure” value (air exposure) is reported as 0.3. For the same compound, the “CO2 molecules captured per quinone” value (with air exposure) was 1.7.
